Values joined by “and” are separate entries in the source; they are usually repeats but may differ in a detail not shown here. Equal values may be shown once. The list shows a part of the results. Single wells; the ratio to wells without odorant was worked out here, and repeats agree poorly.
What was measured:
Assay in all cases: odorant receptor activation (CRE luciferase / Renilla) (fold of no-odor wells); higher = more activation
Conditions in all cases: 100 µM
OR1J2 clone 1443 = tested on: OR1J2 clone 1443
OR1J4 clone 1429 = tested on: OR1J4 clone 1429
OR1K1 clone 1315 = tested on: OR1K1 clone 1315
OR1L1 clone 1379 = tested on: OR1L1 clone 1379
OR1L3 clone 1090 = tested on: OR1L3 clone 1090
OR1L4 G234R clone 1102 = tested on: OR1L4 G234R clone 1102
[1] = tested on: OR1L6 Q23K/C150Y/I215T/R221Q/M223I/G234R clone 1539
OR1L8 clone 1088 = tested on: OR1L8 clone 1088
OR1M1 clone 1198 = tested on: OR1M1 clone 1198
OR1N1 clone 1463 = tested on: OR1N1 clone 1463

SMILES	odorant receptor activation (OR1J2 clone 1443)	odorant receptor activation (OR1J4 clone 1429)	odorant receptor activation (OR1K1 clone 1315)	odorant receptor activation (OR1L1 clone 1379)	odorant receptor activation (OR1L3 clone 1090)	odorant receptor activation (OR1L4 G234R clone 1102)	odorant receptor activation [1]	odorant receptor activation (OR1L8 clone 1088)	odorant receptor activation (OR1M1 clone 1198)	odorant receptor activation (OR1N1 clone 1463)
O=C1CCCCCCCCCCCCCCO1 [pentadecalactone]	1.38	1.16	1.17	1.42	1.18	0.912	0.805	1.04	0.918	1.13
CCCC(=O)O [butyric acid]	0.239	0.273	0.73	0.265	1.17	1.21	1.15	1.48	0.82	1.1
C=C(C)C1CC=CCC1 (stereo not drawn) [r-limonene]	1.4 and 0.987	1.24 and 0.949	1.18 and 0.551	1.28 and 0.971	1.7 and 1.1	1.02 and 0.746	0.981	1.41 and 1.02	1.35 and 0.623	1.04 and 0.561 and 0.831
COc1cc(C)ccc1O [2-methoxy-4-methylphenol]	1.08	1.06	1.24	0.807	17.2	14	0.966	1.18	1.12	0.847
CCCCCCCCCCC=O [undecanal]	1.12	1.17	1.14	1.33	1.18	1.03	0.898	1.11	1.2	1.28
C=CCSCC=C [diallyl sulfide]	1.32	1.3	0.992	1.24	1.12	1.18	0.985	0.921	1.24	1.39
CC12CCC(C1)C(C)(C)C2=O (stereo not drawn) [fenchone]	1.01	0.944	0.902	0.971	0.97	1.1	0.887	1.06	1.21	1.49
CC(C)C=O [isobutyraldehyde]	0.752	0.901	0.796 and 0.928	0.768	7.63	2.87	1.13 and 0.921	0.852	1.13	1.09 and 1.12
CCCCCCC=O [heptaldehyde]	0.974 and 0.518	1.03 and 0.806	0.774 and 1.02 and 0.989	0.831 and 0.757	1.17 and 1.43	1.01 and 1.45	0.753 and 1.21	1.58 and 0.909		
C=CCc1ccc(O)c(OC)c1 [eugenol]	1.34 and 1.14	1.4 and 1.39	2.19 and 1.42	1.28 and 1.38	2.23 and 1.27	1.97 and 1.58	0.793	1.72 and 1.43	1.98 and 1.86	2.62 and 1.09 and 1.18
CC(=O)OC(C)(C)C1CC=C(C)CC1 (stereo not drawn) [terpinyl acetate]	1.12	1.02	1.13	1.02	2.17	1.36	1.18	1.39	1.47	1.21
CC(C)CC(=O)O [isovaleric acid]	0.836	0.725	0.232	0.892	1.16	0.943	0.986	1.14	1.42	0.997
CC/C=C\CCO [cis-3-hexen-1-ol]	0.295	0.289	0.77	0.266	0.901	1.03	0.987	1.19	1	0.888
CCCCCCCC=O [octyl aldehyde]	0.825	0.718	0.28	0.632	1.15	1.08	0.997	1.07	1.18	1.02

Complete entries from above. Order of values: odorant receptor activation (OR1J2 clone 1443)	odorant receptor activation (OR1J4 clone 1429)	odorant receptor activation (OR1K1 clone 1315)	odorant receptor activation (OR1L1 clone 1379)	odorant receptor activation (OR1L3 clone 1090)	odorant receptor activation (OR1L4 G234R clone 1102)	odorant receptor activation [1]	odorant receptor activation (OR1L8 clone 1088)	odorant receptor activation (OR1M1 clone 1198)	odorant receptor activation (OR1N1 clone 1463)
C=CCc1ccc(O)c(OC)c1 [eugenol] in the list: 1.34 and 1.14	1.4 and 1.39	2.19 and 1.42	1.28 and 1.38	2.23 and 1.27	1.97 and 1.58	0.793	1.72 and 1.43	1.98 and 1.86	2.62 and 1.09 and 1.18
CCCC(=O)O [butyric acid] in the list: 0.239	0.273	0.73	0.265	1.17	1.21	1.15	1.48	0.82	1.1

Reference: the odorant receptor screen of Mainland et al. (2015)
